Assay results published in PubChem BioAssay AID2685 (National Center for Advancing Translational Sciences (NCATS), 2010).
Some of the results follow. Further columns of the screen follow, without active or inactive calls. The list favours compounds with an active or inconclusive main result. The note in brackets gives the kind of curve behind each potency; many fits are weak.

Experiment: qHTS Assay for Lipid Storage Modulators in Drosophila S3 Cells;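 as to cell number change: cells counted by Cell Tracker Red CMTPX staining in the red channel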
Conditions: BODIPY lipid droplet fluorescence, 18-24 h; for cell number change: measured here: cell count max response, cells fed with added oleic acid
Summary of the method: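 Drosophila S3 cells loaded with oleic acid (400 uM, as added) and compounds at several concentrations; lipid droplets imaged by 488-nm laser-scanning cytometry, 500–530 nm intensity and object ratio to cell channel. Percent activity normalized to 20 uM Triacsin C.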

[1] = measured here: cell number channel AC50, cells fed with added oleic acid
[2] = measured here: lipid fluorescence (Fed channel) AC50, cells fed with added oleic acid

| Compound | AC50 [1] | cell number change [%] | AC50 [2] |
| --- | --- | --- | --- |
| CC(=O)N1N=C(c2ccc(Br)cc2)CC1c1cn(C)c2ccccc12 (stereo not given) | 6.51 µM [rising, single point] | – | – |
| CC#CCN(Cc1ccco1)C(=O)c1ccc(OC2CCN(Cc3ccccn3)CC2)cc1 | – | -28.9 | – |
| OCC[C@H]1C[C@H](O)[C@@H](O)[C@]2(Cc3ccccc3O2)O1 | – | -29.9 | 14.6 µM [falling, partial curve] |
| COc1ccc(S(=O)(=O)N2CCN(C/C=C/c3ccccc3)CC2)cc1F | – | 53.8 | – |
| O=C(OC(C(=O)NC1CCCC1)c1ccc(F)cc1)c1ccno1 (stereo not given) | 0.58 µM [falling, single point] | – | 6.51 µM [falling, single point] |
| COc1ccccc1C(=O)N1CCN(Cc2nc3cc([N+](=O)[O-])ccc3n2C)CC1 | – | 112 | – |
| O=C(Nc1ccc(F)c(F)c1)c1ccc(-n2cncn2)c([N+](=O)[O-])c1 | 0.731 µM [falling, full curve, poor fit] | -29.8 | 0.517 µM [falling, full curve] |
| CCC(C)(C)NC(=O)C(c1ccc(OC)cc1)N(C(=O)CCC(=O)Nc1cc(C)on1)c1cccc(F)c1 (stereo not given) | – | 11.7 | – |
| Brc1cccc(Nc2nc(-c3cccnc3)cs2)c1 | – | -24 | – |
| COc1ccc(OC)c(-c2cc(C(=O)Nc3c(C)nn(Cc4ccccc4)c3C)no2)c1 | – | -0.534 | 0.461 µM [rising, full curve] |
| Cc1ccc(N(CC(=O)O)C2SC(=O)NC2=O)cc1 (stereo not given) | 18.4 µM [falling, partial curve] | -188 | 20.6 µM [falling, partial curve] |
| CCOC(=O)c1c(SC)nc(SC)c2c1CCC2 | – | 8.05 | – |
| CCOc1ccc(C(=O)NCC(C)CN(C)C)cc1OCC (stereo not given) | 29.1 µM [falling, single point] | -38.6 | 18.4 µM [falling, single point] |
| O=C(O)c1cn(-c2ccc(N3CCCC3)c(F)c2)c2c(F)c(F)c(F)cc2c1=O | 5.17 µM [falling, single point] | 3.71 | 5.8 µM [falling, single point] |
| CC(C)=C1SC(N2CCN(c3cccc(C(F)(F)F)c3)CC2)=NC1=O | – | -12.2 | 0.184 µM [falling, full curve, poor fit] |
| Cc1ccc(C(=O)C2CCN(CC(=O)NC3CCCC3)CC2)cc1 | – | 14.8 | – |
| CCCNC(=O)C1CC(c2ccccc2C(F)(F)F)=NO1 (stereo not given) | – | 23.6 | 13 µM [rising, partial curve] |
| COCCNC(=O)c1cc2sc3ccccc3c2s1 | 0.82 µM [rising, partial curve] | – | 6.51 µM [rising, single point] |
| COc1ccc(CNC(=O)C2CC=CCC2C(=O)O)cc1OC (stereo not given) | – | 12.7 | 18.4 µM [rising, single point] |
| O=C(COC(=O)CCC1CCCC1)NCc1ccc(Cl)cc1 | – | -18.9 | – |
| Cc1cccc(NC(=O)CNC(=O)COc2cc(F)ccc2[N+](=O)[O-])c1C | – | – | 4.61 µM [rising, partial curve] |

| Compound | AC50 [1] | cell number change [%] | AC50 [2] |
| --- | --- | --- | --- |
| CS(=O)(=O)N1CCN=C1SCc1ccc(F)cc1 | – | -8.02 | – |
| CCCCC(=O)Nc1nc(C)c(C(C)=O)s1 | – | -13 | 0.0092 µM [falling, full curve, poor fit] |
| S=C(NCC1CCCO1)Nc1cccc(Cl)c1 (stereo not given) | – | – | 0.116 µM [rising, full curve, poor fit] |
| Cc1nn(C)c(C)c1NS(=O)(=O)c1ccccc1Cl | 29.1 µM [rising, single point] | 35.1 | 16.4 µM [rising, single point] |
| CC12CCC(C(=O)N3CCN(c4ncccn4)CC3)(c3nc4ccccc4nc31)C2(C)C (stereo not given) | – | -16.4 | – |
| Cc1cc(C)cc(OCC(=O)NNC(=O)CN2C(=O)c3ccccc3C2=O)c1 | – | -15.2 | – |
| COc1ccc(C(=O)C2CCN(CC(=O)Nc3ccc(OC)cc3OC)CC2)cc1 | – | -11.5 | – |
| O=C(NC(=S)N1CCN(c2ccc([N+](=O)[O-])cc2)CC1)c1ccccc1F | 9.2 µM [falling, partial curve] | -61.1 | 29.1 µM [falling, single point] |
| CCCCn1c(N)c(N(CCOC)C(=O)c2cc(C)oc2C)c(=O)[nH]c1=O | – | -25 | 9.2 µM [rising, partial curve] |
| COc1ccccc1CNC(=O)CSc1nc(=O)n(Cc2ccncc2)c2c1CCC2 | 7.31 µM [falling, single point] | 121 | – |
| O=C1/C(=C/c2ccccc2F)SC(=S)N1CCC(=O)N1CCCCC1CCO (stereo not given) | – | -15.8 | 4.11 µM [falling, single point] |
| CCC(C)c1ccc(O)c(NC(=O)c2cccnc2)c1 (stereo not given) | 0.0184 µM [rising, full curve, poor fit] | 23.7 | 0.58 µM [falling, single point] |
| COc1cc2[nH]cc(C(=O)NCc3ccccc3)c(=O)c2cc1OC | – | -1.31 | 14.6 µM [falling, partial curve] |
| CC(C)NC(=O)CSc1ccccc1C(=O)NNC(=O)Cn1ccc(C(F)(F)F)n1 | – | 16.8 | 0.92 µM [rising, full curve, poor fit] |
| CCc1ccc(NC(=O)Nc2ccc3c(c2)N(C)C(=O)CS3)cc1 | 29.1 µM [falling, single point] | -48.6 | 6.51 µM [falling, partial curve] |
| Nc1n[nH]c(=S)n1/N=C1/C(=O)Nc2ccccc21 | 0.0058 µM [falling, full curve] | -29 | – |
| CCOC(=O)Cc1csc(NS(=O)(=O)c2cc(Cl)ccc2Cl)n1 | – | 15 | 7.31 µM [rising, partial curve] |
| COc1ccccc1NC(=O)CSc1nc2ccccc2nc1N1CC(C)OC(C)C1 (stereo not given) | – | 14.7 | 10.3 µM [rising, partial curve, poor fit] |
| CC(=O)OCC(=O)Nc1c(C)cc(C)cc1C | – | – | 0.651 µM [rising, single point] |
| CC1(C)CC(=O)C(C=Nc2cccnc2/N=C/C2=C(O)CC(C)(C)CC2=O)=C(O)C1 | 0.82 µM [rising, full curve, poor fit] | 16 | 0.651 µM [rising, full curve, poor fit] |

Another view of three compounds above:
Compound	AC50 [1]	cell number change [%]	AC50 [2]
CCCCn1c(N)c(N(CCOC)C(=O)c2cc(C)oc2C)c(=O)[nH]c1=O	–	-25	9.2 µM [rising, partial curve]
COc1ccccc1CNC(=O)CSc1nc(=O)n(Cc2ccncc2)c2c1CCC2	7.31 µM [falling, single point]	121	–
O=C1/C(=C/c2ccccc2F)SC(=S)N1CCC(=O)N1CCCCC1CCO (stereo not given)	–	-15.8	4.11 µM [falling, single point]
